From the supplement of paper PMC12823440, “Inhibitors supercharge kinase turnover through native proteolytic circuits” (Nature, 2025)
Structures can show the parent of a compound that is named as a salt. This is one part of the list. Hit calls seldom repeat between salt and free forms of one compound.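 In K562 cells expressing nanoluciferase-fused kinases, luminescence was recorded at 4 h intervals between 2 and 18 h, normalized as percent of control with DMSO at 100% and a positive control at 0%. A significant (2 sigma) signal drop marks a time point as decreased. The authors' rule for a hit is not shown and takes in more than the number of time points.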

Protein sequences, listed by entry. Tags and fused reporters are not part of them. Lines headed by an entry give the natural chain unless they say otherwise; changes in a name come on top.
UniProt P48729: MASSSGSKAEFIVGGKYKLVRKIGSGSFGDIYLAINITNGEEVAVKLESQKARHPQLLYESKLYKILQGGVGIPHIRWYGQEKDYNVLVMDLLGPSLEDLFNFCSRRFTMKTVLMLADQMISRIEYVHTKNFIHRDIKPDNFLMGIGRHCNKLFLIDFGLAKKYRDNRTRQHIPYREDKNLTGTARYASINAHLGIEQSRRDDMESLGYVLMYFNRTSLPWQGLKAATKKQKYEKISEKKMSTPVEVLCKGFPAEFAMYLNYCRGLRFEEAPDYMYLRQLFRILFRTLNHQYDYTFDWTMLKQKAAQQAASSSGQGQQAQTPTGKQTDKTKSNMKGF
UniProt Q92630: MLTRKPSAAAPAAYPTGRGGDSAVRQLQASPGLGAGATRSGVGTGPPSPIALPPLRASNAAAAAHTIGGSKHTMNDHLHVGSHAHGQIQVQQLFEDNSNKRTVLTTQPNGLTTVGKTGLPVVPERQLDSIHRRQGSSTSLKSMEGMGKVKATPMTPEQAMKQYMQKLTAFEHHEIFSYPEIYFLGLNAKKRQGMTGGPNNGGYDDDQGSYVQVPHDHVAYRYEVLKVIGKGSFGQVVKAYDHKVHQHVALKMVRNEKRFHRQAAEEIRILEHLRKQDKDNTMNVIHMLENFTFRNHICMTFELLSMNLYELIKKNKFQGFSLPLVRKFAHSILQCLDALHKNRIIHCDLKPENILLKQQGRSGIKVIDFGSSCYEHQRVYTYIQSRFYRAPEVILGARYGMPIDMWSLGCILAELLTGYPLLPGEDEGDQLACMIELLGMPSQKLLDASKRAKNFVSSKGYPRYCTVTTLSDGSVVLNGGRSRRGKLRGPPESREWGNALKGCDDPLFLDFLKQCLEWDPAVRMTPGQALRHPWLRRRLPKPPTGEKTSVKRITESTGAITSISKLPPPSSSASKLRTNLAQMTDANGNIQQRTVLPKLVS
UniProt P29317, whole entry: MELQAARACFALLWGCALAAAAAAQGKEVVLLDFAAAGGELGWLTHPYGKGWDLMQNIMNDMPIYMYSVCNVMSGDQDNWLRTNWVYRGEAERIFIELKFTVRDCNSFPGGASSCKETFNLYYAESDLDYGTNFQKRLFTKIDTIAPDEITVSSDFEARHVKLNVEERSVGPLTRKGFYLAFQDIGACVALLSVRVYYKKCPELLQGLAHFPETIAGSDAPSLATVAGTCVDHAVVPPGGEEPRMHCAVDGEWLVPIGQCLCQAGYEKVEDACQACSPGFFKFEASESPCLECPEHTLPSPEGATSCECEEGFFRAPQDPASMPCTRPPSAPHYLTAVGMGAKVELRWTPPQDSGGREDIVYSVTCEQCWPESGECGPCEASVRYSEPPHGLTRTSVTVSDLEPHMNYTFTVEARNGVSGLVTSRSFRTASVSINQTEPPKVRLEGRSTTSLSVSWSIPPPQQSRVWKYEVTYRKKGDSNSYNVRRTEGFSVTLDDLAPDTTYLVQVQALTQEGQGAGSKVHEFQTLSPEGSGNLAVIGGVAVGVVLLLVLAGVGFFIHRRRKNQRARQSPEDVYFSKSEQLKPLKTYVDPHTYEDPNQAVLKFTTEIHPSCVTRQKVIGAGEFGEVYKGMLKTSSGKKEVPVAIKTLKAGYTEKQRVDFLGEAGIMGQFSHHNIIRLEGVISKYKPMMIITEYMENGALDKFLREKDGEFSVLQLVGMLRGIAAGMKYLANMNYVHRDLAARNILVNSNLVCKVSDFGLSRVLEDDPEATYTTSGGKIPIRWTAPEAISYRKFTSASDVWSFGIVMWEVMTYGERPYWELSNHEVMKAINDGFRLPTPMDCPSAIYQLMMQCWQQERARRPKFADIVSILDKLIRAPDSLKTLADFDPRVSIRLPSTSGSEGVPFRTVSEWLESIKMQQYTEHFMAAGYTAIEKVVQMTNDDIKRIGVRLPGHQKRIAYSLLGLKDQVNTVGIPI
UniProt P21860, whole entry: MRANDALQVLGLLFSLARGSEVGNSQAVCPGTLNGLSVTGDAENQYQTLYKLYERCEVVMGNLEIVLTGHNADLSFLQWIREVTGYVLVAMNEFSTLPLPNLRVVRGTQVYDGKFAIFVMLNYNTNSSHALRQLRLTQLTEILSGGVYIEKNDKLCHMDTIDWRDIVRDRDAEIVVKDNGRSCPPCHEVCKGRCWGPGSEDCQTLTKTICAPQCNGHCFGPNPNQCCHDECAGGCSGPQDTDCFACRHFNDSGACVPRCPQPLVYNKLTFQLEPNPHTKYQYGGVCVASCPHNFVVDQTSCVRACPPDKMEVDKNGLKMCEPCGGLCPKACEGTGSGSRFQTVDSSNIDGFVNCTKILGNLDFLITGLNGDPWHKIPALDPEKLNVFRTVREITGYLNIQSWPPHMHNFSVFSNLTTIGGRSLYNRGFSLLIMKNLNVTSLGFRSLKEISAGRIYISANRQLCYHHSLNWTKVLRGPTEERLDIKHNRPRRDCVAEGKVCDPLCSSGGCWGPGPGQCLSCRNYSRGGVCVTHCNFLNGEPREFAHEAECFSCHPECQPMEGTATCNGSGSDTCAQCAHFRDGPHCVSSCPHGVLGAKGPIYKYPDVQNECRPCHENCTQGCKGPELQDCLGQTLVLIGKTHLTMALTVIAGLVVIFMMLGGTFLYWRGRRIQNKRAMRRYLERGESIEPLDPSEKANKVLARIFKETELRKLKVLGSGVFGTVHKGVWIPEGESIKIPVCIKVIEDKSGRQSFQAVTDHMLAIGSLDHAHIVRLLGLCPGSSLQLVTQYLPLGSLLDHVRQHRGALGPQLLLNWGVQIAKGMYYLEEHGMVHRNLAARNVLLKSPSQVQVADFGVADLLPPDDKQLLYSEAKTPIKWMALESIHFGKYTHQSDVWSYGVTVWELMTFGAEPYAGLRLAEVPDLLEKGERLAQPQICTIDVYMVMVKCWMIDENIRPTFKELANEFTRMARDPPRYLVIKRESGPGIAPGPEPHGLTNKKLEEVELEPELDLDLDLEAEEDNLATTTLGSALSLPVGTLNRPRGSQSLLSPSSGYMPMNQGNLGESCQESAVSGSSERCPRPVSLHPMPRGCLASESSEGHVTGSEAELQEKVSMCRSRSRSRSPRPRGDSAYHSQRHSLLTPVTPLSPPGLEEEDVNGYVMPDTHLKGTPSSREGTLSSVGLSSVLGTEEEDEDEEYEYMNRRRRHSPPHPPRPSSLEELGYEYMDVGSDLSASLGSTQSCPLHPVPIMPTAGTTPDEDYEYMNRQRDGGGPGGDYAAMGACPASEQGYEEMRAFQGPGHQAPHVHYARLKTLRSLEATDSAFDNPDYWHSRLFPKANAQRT
UniProt Q15303, whole entry R711C: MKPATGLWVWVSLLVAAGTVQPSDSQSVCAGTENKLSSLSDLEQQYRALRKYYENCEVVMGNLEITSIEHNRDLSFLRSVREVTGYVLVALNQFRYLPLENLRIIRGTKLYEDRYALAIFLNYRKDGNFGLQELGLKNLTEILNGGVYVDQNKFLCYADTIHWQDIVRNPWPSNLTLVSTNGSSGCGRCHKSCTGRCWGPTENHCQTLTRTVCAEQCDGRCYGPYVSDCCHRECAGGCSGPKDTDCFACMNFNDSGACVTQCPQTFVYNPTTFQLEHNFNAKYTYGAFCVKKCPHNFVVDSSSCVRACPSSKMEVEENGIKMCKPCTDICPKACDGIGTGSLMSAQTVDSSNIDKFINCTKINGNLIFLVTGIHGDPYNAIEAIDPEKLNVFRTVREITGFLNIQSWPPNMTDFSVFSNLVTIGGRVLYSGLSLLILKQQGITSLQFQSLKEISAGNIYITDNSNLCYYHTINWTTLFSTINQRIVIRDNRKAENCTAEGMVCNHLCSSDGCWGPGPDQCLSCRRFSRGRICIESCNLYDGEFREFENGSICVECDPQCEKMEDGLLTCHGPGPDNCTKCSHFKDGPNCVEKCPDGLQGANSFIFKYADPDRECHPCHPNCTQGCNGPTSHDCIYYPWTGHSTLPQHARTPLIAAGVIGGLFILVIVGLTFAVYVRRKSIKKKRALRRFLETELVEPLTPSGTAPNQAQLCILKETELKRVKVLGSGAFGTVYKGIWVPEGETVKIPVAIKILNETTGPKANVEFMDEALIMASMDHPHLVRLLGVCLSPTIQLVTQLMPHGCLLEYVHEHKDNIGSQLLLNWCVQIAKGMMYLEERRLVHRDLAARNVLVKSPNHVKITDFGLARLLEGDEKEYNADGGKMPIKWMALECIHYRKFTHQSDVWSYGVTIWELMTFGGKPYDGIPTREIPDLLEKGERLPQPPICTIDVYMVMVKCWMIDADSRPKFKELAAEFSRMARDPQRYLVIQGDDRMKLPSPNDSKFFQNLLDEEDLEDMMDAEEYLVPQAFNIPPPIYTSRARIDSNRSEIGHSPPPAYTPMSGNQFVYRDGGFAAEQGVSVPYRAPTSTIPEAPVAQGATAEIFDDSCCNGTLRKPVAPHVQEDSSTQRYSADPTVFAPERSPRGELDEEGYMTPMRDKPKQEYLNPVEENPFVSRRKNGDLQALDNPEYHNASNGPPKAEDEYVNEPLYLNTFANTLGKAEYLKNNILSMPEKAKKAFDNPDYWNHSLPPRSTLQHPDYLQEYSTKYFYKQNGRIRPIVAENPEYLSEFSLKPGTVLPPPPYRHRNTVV
UniProt P21802, whole entry, looked up: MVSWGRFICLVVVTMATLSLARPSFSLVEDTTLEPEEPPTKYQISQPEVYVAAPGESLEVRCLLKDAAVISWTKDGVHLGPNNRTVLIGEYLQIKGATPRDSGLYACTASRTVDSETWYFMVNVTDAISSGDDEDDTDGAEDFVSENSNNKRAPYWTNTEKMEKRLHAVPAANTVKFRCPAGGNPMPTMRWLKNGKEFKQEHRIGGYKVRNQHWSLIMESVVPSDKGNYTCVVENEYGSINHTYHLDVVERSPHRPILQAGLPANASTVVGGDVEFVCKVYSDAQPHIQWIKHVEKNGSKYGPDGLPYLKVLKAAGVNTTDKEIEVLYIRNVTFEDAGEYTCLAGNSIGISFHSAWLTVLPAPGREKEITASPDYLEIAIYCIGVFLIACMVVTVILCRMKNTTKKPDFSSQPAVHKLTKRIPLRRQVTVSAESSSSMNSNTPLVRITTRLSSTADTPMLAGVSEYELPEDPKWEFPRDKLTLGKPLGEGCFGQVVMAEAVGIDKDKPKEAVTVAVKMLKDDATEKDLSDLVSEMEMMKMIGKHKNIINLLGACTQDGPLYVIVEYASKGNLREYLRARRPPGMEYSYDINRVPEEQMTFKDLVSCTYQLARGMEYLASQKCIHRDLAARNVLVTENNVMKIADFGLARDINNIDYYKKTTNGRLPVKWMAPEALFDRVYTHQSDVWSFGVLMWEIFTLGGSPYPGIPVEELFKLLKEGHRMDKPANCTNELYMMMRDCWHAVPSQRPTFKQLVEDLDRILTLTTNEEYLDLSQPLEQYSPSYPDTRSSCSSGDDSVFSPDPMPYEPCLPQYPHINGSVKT
UniProt P22607, whole entry, looked up: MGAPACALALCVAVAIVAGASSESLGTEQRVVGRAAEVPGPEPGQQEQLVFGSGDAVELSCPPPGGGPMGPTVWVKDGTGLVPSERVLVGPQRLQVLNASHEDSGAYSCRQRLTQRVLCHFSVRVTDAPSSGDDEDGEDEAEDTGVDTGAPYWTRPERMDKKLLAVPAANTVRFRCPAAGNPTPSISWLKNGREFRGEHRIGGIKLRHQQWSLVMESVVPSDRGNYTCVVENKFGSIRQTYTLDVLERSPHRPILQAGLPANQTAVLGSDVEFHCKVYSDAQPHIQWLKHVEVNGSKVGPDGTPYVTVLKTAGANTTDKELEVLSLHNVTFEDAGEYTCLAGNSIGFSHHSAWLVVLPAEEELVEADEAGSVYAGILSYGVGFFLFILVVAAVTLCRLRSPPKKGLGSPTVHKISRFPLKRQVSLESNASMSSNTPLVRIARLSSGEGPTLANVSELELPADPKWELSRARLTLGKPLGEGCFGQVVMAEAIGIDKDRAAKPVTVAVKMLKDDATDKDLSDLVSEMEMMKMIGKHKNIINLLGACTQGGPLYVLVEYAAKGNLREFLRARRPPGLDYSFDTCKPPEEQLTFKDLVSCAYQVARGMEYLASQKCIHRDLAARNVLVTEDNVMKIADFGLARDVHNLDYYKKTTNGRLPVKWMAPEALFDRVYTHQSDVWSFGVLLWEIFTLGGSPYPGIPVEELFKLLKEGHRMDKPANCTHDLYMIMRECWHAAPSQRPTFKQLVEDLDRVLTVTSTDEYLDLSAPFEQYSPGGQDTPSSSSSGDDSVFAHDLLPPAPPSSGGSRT

How the values were obtained:
Assay in all cases: number of time points (of 5) at which kinase-Nluc abundance scored as decreased, DMSO-normalised (count); higher = more persistent destabilization
Details in all cases: K562; 2-18 h
[1] = target: CSNK1A1 (UniProt P48729)
[2] = target: CSNK1D (UniProt P48730)
[3] = target: DDR1 (UniProt Q08345)
[4] = target: DYRK1B (UniProt Q9Y463)
[5] = target: DYRK2 (UniProt Q92630)
[6] = target: EGFR (UniProt P00533)
[7] = target: EGFR_G719S (UniProt P00533)
[8] = target: EGFR_G719S_T790M (UniProt P00533)
[9] = target: EGFR_L718V (UniProt P00533)
[10] = target: EGFR_L858R (UniProt P00533)
[11] = target: EGFR_L861Q (UniProt P00533)
[12] = target: EGFR_T790M (UniProt P00533)
[13] = target: EPHA2 (UniProt P29317)
[14] = target: ERBB3 (UniProt P21860)
[15] = target: ERBB4_R711C (clone: ERBB4_mut) (UniProt Q15303)
[16] = target: ERN1 (UniProt O75460)
[17] = target: FGFR1 (UniProt P11362)
[18] = target: FGFR2 (UniProt P21802)
[19] = target: FGFR3 (UniProt P22607)
[20] = target: FGR (UniProt P09769)

Measured: number of time points

Cn1cc(-c2nc(N[C@@H]3CCCC[C@@H]3N)c(F)c3c2C(=O)NC3)cn1 [TAK-659 (hydrochloride)] (2 µM)
0: all assays above

Nc1ccc(Sc2nc3ccccc3s2)c(Cl)c1 [KRAS inhibitor-9] (10 µM)
0: all assays above

O=C(Nc1ccc(Cl)cc1)C1CN(C(=O)c2cccc(-c3ccco3)c2)CC(F)(F)C1 (stereo not given) (2.5 µM)
0: all assays above

O=C(CCl)c1c[nH]c2ccccc12 (2.5 µM)
0: all assays above

CNC(=O)CN1CCC(Oc2cc3c(Nc4cccc(Cl)c4F)ncnc3cc2OC)CC1 [Sapitinib] (10 µM)
0: all assays above

COc1cc2ncnc(Nc3cc(Br)c(O)c(Br)c3)c2cc1OC (2.5 µM)
0: all assays above

COc1ccc(CCNCc2ccc(OCc3ccc(Cl)nc3)c(OC)c2)cc1OC [SBE13 (Hydrochloride)] (10 µM)
0: all assays above

N=C(NC(=N)N1CCCC1)Nc1ccc(OC(F)(F)F)cc1 (10 µM)
0: all assays above

C[C@@H](NC(=O)c1ncnc(N)c1Cl)c1ncc(C(=O)Nc2cc(C(F)(F)F)c(Cl)cn2)s1 (2.5 µM)
1: [6] | [9] | [12] | [16]
3: [10] | [14] | [15] | [18]
0: [4] | [13] | [17] | [19] | [20]
4: [5]
2: all other assays above

Cc1cc2c(F)c(Oc3ncnn4cc(OC[C@@H](C)OC(=O)[C@H](C)N)c(C)c34)ccc2[nH]1 [Brivanib (alaninate)] (10 µM)
0: all assays above

O=C(COc1ccc(Cl)cc1)NC1CCC(NC(=O)COc2ccc(Cl)cc2)CC1 (stereo not drawn) [ISRIB (trans-isomer)] (10 µM)
0: all assays above

CCc1cc(Nc2nccc(-c3c(-c4ccc(OC)c(C(=O)Nc5c(F)cccc5F)c4)nc4ccccn34)n2)c(OC)cc1N1CCC(N2CCN(S(C)(=O)=O)CC2)CC1 (2.5 µM)
0: all assays above

CCCCC(=O)OCC(=O)[C@]1(O)Cc2c(O)c3c(c(O)c2[C@@H](O[C@H]2C[C@H](NC(=O)C(F)(F)F)[C@H](O)[C@H](C)O2)C1)C(=O)c1c(OC)cccc1C3=O [Valrubicin] (10 µM)
1: [5] | [18]
0: all other assays above

NC(=O)c1cnc(N[C@@H]2CCCC[C@@H]2N)nc1Nc1cccc(-n2nccn2)c1 (2.5 µM)
4: [3]
0: all other assays above

O=c1cc(N2CCOCC2)oc2c(-c3cccc4c3sc3ccccc34)cccc12 (10 µM)
0: all assays above

Cc1cccc(CC(=O)N2CCc3c2ccc(-c2cn(C)c4ncnc(N)c24)c3F)n1 (10 µM)
0: all assays above

Nc1ccc(-c2cccc(C(=O)Nc3cnc4nc(N5CCOCC5)oc4c3)n2)cn1 (10 µM)
5: [13]
0: all other assays above

O=CN1CCN(c2ccc(C=C3C(=O)Nc4ccccc43)cc2)CC1 (10 µM)
0: all assays above

O=C(Nc1ccccc1C(=O)NC1CCCCNC1=O)c1cc2ccccc2s1 (stereo not given) (10 µM)
0: all assays above

N#Cc1cnc(Nc2cc(NC[C@H]3CNCCO3)c(C(F)(F)F)cn2)cn1 (10 µM)
4: [6]
1: [8] | [13] | [15] | [16] | [18] | [19]
3: [11]
2: [7] | [10] | [14]
0: all other assays above

CCOC(=O)c1c(N2CCc3ccc(OC)cc3C2)oc(C=C2C=Nc3ncccc32)c1O (10 µM)
0: all assays above

N#Cc1cc(N2CCC(C(=O)N3N=CC[C@H]3c3cc(F)cc(F)c3)CC2)ncn1 (10 µM)
0: all assays above
